Taken from: PubChem BioAssay AID1224830 (NIAID, 2016)
In all, the deposit lists about 18,000 reagents; shown is an unselected part. About 2,900 of them (16%) were called active. 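Calls are made per well; low scores hint the gene aids the LPS response, high scores that it dampens it.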 Repeated entries: four replicate wells of each siRNA pool.

Screen: 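Regulators of TLR4 signalling towards TNF-alpha in macrophage-like cells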 (primary screen)
System: human THP-1 monocytic leukaemia cells, TNF dual-luciferase reporter clone, PMA-differentiated to macrophage-like cells
Reagent: siRNA pool against human genes, 50 nM
Time to read-out: LPS for 4 h, given about 3 days after siRNA transfection
Challenge: bacterial LPS (TLR4 ligand), 10 ng/ml
Measured: 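Ratio of firefly to renilla light, scaled to the plate median and expressed as a robust z-score per replicate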
Reading the numbers: TNF reporter robust z-score: higher = stronger TNF reporter response to LPS
Hit rule: 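Each well counts as active if its z-score is over 2.8 or under -1.5; controls are left without a call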

Knock-down of SLC6A14 gave: TNF reporter robust z-score -1.66; active.
Silencing of SLC6A14 gave: TNF reporter robust z-score -1.76; active.
With knock-down of SLC6A14 the results were TNF reporter robust z-score -1.52; active.
Knock-down of SLC6A14 gave: TNF reporter robust z-score -1.29; inactive.
IDH2 gave TNF reporter robust z-score -0.01; inactive.
For IDH2, the entry reads TNF reporter robust z-score -0.31; inactive.
Knock-down of IDH2 came out at: TNF reporter robust z-score -0.64; inactive.
With knock-down of IDH2, the record shows TNF reporter robust z-score -0.5; inactive.
For KRTAP19-7, the values are TNF reporter robust z-score 1.06; inactive.
KRTAP19-7 gave TNF reporter robust z-score 1.16; inactive.
Silencing of KRTAP19-7 came out at: TNF reporter robust z-score 1.36; inactive.
Depletion of KRTAP19-7 resulted in: TNF reporter robust z-score 0.49; inactive.
After knock-down of EAF2 the results were TNF reporter robust z-score -0.59; inactive.
With knock-down of EAF2, the screen gave TNF reporter robust z-score 1.24; inactive.
Against EAF2, the entry reads TNF reporter robust z-score 1.16; inactive.
For EAF2, the entry reads TNF reporter robust z-score 0.81; inactive.
ZNF431 gave TNF reporter robust z-score 0.26; inactive.
Knock-down of ZNF431 came out at: TNF reporter robust z-score 0.65; inactive.
For ZNF431, the values are TNF reporter robust z-score -0.62; inactive.
For ZNF431 the deposit lists TNF reporter robust z-score 0.58; inactive.
After knock-down of DNTT, the record shows TNF reporter robust z-score -1.28; inactive.
With knock-down of DNTT, the screen gave TNF reporter robust z-score -0.55; inactive.
Knock-down of DNTT resulted in: TNF reporter robust z-score -1.15; inactive.
Depletion of DNTT gave: TNF reporter robust z-score 0.32; inactive.
For PNMA8A, the values are TNF reporter robust z-score -0.32; inactive.
Against PNMA8A the deposit lists TNF reporter robust z-score -0.34; inactive.
Against PNMA8A, the values are TNF reporter robust z-score 0.58; inactive.
Knock-down of PNMA8A gave: TNF reporter robust z-score -0.65; inactive.
Against CLIC2 the deposit lists TNF reporter robust z-score -0.2; inactive.
For CLIC2, the entry reads TNF reporter robust z-score 0.53; inactive.
Against CLIC2, the entry reads TNF reporter robust z-score 0.17; inactive.
CLIC2 gave TNF reporter robust z-score -0.14; inactive.

Entries listed so far with an active call, once more:
SLC6A14 — TNF reporter robust z-score = -1.66; call = active
SLC6A14 — TNF reporter robust z-score = -1.76; call = active
SLC6A14 — TNF reporter robust z-score = -1.52; call = active

The list goes on.
SPEF2 scored TNF reporter robust z-score -0.81; inactive.
With knock-down of SPEF2, the record shows TNF reporter robust z-score -1.07; inactive.
For SPEF2, the entry reads TNF reporter robust z-score -1.31; inactive.
For SPEF2, the values are TNF reporter robust z-score -1.08; inactive.
Knock-down of STXBP1 came out at: TNF reporter robust z-score -0.6; inactive.
STXBP1 gave TNF reporter robust z-score 2.52; inactive.
STXBP1 showed TNF reporter robust z-score 0.64; inactive.
For STXBP1 the deposit lists TNF reporter robust z-score 1.96; inactive.
For ING3, the entry reads TNF reporter robust z-score -1.17; inactive.
Depletion of ING3 came out at: TNF reporter robust z-score -1; inactive.
Silencing of ING3 resulted in: TNF reporter robust z-score 0.09; inactive.
Depletion of ING3 gave: TNF reporter robust z-score -0.51; inactive.
Knock-down of B4GALT4 came out at: TNF reporter robust z-score -0.16; inactive.
After knock-down of B4GALT4, the screen gave TNF reporter robust z-score 0.85; inactive.
B4GALT4 scored TNF reporter robust z-score -1.09; inactive.
After knock-down of B4GALT4, the record shows TNF reporter robust z-score 0.24; inactive.
Against SLC7A2, the entry reads TNF reporter robust z-score 0.71; inactive.
SLC7A2 showed TNF reporter robust z-score 0.86; inactive.
With knock-down of SLC7A2, the record shows TNF reporter robust z-score 0.41; inactive.
Knock-down of SLC7A2 resulted in: TNF reporter robust z-score 0.45; inactive.
Against MAN1A1 the deposit lists TNF reporter robust z-score -0.53; inactive.
After knock-down of MAN1A1, the record shows TNF reporter robust z-score -0.38; inactive.
MAN1A1 showed TNF reporter robust z-score -0.84; inactive.
MAN1A1 showed TNF reporter robust z-score -0.04; inactive.
FIG4 showed TNF reporter robust z-score 0.37; inactive.
Against FIG4, the values are TNF reporter robust z-score 0.48; inactive.
After knock-down of FIG4, the record shows TNF reporter robust z-score -0.51; inactive.
With knock-down of FIG4 the results were TNF reporter robust z-score 0.65; inactive.
